According to patent publication EP3912994A1:
These are yes or no findings as the source states them, for the method shown. Binding seen in cells or lysates may run through a third protein. These calls come from enrichment with a bait or labelling near it, and not all partners need be listed.

Amino acid sequences for entries named in this document (tags omitted). Residues count along the entry.
UniProt Q80YX1, residues 23-2110: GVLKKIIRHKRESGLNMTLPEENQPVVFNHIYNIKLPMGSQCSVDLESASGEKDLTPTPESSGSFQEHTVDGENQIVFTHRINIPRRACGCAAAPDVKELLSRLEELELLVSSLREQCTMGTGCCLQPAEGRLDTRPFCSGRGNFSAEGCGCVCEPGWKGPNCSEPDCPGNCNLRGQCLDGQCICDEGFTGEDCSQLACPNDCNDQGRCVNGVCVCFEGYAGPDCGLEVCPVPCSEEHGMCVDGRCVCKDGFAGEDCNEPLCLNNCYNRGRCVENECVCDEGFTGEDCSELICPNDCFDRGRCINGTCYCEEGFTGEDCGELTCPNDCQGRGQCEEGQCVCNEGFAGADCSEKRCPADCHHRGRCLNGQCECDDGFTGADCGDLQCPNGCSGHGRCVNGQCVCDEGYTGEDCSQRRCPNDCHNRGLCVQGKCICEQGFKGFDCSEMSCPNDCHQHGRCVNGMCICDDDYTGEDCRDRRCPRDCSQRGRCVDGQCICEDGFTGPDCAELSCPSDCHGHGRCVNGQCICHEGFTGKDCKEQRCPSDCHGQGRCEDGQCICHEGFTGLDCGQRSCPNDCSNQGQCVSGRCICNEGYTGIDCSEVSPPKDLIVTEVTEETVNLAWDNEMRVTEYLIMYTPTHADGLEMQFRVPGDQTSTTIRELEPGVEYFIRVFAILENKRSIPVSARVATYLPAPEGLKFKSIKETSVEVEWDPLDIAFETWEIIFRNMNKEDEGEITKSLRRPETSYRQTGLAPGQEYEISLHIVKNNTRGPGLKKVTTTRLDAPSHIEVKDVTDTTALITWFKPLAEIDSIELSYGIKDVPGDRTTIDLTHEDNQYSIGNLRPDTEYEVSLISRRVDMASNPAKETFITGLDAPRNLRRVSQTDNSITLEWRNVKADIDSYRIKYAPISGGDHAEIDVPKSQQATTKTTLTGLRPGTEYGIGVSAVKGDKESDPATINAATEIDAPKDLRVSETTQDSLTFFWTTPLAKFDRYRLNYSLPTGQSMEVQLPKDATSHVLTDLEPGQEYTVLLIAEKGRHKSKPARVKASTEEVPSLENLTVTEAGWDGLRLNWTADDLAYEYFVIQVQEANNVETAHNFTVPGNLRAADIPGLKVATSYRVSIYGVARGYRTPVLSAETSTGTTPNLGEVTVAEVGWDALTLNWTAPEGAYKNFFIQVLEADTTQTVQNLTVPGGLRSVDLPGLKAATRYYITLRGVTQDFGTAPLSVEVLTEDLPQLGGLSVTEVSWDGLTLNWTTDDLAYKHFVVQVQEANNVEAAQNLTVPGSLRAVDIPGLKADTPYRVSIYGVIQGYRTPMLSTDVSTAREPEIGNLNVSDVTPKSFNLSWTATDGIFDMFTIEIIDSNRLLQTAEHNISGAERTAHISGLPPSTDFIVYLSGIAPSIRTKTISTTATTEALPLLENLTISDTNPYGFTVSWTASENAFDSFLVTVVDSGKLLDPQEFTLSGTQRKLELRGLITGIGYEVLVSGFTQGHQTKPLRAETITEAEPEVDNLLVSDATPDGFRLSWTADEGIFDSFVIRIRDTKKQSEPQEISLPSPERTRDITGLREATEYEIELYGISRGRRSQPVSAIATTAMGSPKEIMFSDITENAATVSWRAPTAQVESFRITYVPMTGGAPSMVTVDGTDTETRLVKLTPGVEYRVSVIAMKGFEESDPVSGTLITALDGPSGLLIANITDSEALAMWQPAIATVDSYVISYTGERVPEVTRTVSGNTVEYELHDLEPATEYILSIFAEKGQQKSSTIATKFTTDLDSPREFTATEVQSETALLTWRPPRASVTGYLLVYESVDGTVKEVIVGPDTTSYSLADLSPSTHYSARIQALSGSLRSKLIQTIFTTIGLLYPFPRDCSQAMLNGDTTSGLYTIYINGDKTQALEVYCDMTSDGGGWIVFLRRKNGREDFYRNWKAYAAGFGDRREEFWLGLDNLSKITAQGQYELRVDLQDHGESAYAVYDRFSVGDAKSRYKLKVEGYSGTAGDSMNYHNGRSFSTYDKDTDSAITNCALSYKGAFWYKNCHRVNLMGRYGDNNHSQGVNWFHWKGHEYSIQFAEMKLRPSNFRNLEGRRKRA

B1: Fibulin-1 (protein, UniProt Q08879 30-705, looked up)
chain: DISMEACCTDGNQMANQHRDCSLPYTSESKECRMVQEQCCHNQLEELHCATGINLASEPEGCASLHSYNSSLETIFIKRCCHCCMLGKASLARDQTCEPIVMISYQCGLVFRACCVKARENSDFVQGNGADLQDPAKIPDEEDQEDPYLNDRCRGGGPCKQQCRDTGDEVICSCFVGYQLQSDGVSCEDINECITGSHNCRLGESCINTVGSFRCQRDSSCGTGYELTEDNNCKDIDECETGIHNCPPDFICQNTLGSFRCRPKLQCKSGFIQDALGNCIDINECLSISAPCPVGQTCINTEGSYTCQKNVPNCGRGYHLNEEGTRCVDVDECSPPAEPCGKGHHCLNSPGSFRCECKAGFYFDGISRTCVDINECQRYPGRLCGHKCENTPGSFHCSCSAGFRLSVDGRSCEDVNECLNSPCSQECANVYGSYQCYCRRGYQLSDVDGVTCEDIDECALPTGGHICSYRCINIPGSFQCSCPSSGYRLAPNGRNCQDIDECVTGIHNCSINETCFNIQGSFRCLSFECPENYRRSADTFRQEKTDTVRCIKSCRPNDEACVRDPVHTVSHTVISLPTFREFTRPEEIIFLRAVTPLYPANQADIIFDITEGNLRDSFDIIKRYEDGMTVGVVRQVRPIVGPFYAVLKLEMNYVLGGVVSHRNVVNVHIFVSEYWF
B2: Progranulin (protein, UniProt P28798 18-589, looked up)
chain: TQCPDGQFCPVACCLDQGGANYSCCNPLLDTWPRITSHHLDGSCQTHGHCPAGYSCLLTVSGTSSCCPFSKGVSCGDGYHCCPQGFHCSADGKSCFQMSDNPLGAVQCPGSQFECPDSATCCIMVDGSWGCCPMPQASCCEDRVHCCPHGASCDLVHTRCVSPTGTHTLLKKFPAQKTNRAVSLPFSVVCPDAKTQCPDDSTCCELPTGKYGCCPMPNAICCSDHLHCCPQDTVCDLIQSKCLSKNYTTDLLTKLPGYPVKEVKCDMEVSCPEGYTCCRLNTGAWGCCPFAKAVCCEDHIHCCPAGFQCHTEKGTCEMGILQVPWMKKVIAPLRLPDPQILKSDTPCDDFTRCPTNNTCCKLNSGDWGCCPIPEAVCCSDNQHCCPQGFTCLAQGYCQKGDTMVAGLEKIPARQTTPLQIGDIGCDQHTSCPVGQTCCPSLKGSWACCQLPHAVCCEDRQHCCPAGYTCNVKARTCEKDVDFIQPPVLLTLGPKVGNVECGEGHFCHDNQTCCKDSAGVWACCPYLKGVCCRDGRHCCPGGFHCSARGTKCLRKKIPRWDMFLRDPVPRPLL
B3: A disintegrin and metalloproteinase with thrombospondin motifs 1 (enzyme, UniProt P97857 254-968, looked up)
chain: FVSSPRYVETMLVADQSMADFHGSGLKHYLLTLFSVAARFYKHPSIRNSISLVVVKILVIYEEQKGPEVTSNAALTLRNFCSWQKQHNSPSDRDPEHYDTAILFTRQDLCGSHTCDTLGMADVGTVCDPSRSCSVIEDDGLQAAFTTAHELGHVFNMPHDDAKHCASLNGVSGDSHLMASMLSSLDHSQPWSPCSAYMVTSFLDNGHGECLMDKPQNPIKLPSDLPGTLYDANRQCQFTFGEESKHCPDAASTCTTLWCTGTSGGLLVCQTKHFPWADGTSCGEGKWCVSGKCVNKTDMKHFATPVHGSWGPWGPWGDCSRTCGGGVQYTMRECDNPVPKNGGKYCEGKRVRYRSCNIEDCPDNNGKTFREEQCEAHNEFSKASFGNEPTVEWTPKYAGVSPKDRCKLTCEAKGIGYFFVLQPKVVDGTPCSPDSTSVCVQGQCVKAGCDRIIDSKKKFDKCGVCGGNGSTCKKMSGIVTSTRPGYHDIVTIPAGATNIEVKHRNQRGSRNNGSFLAIRAADGTYILNGNFTLSTLEQDLTYKGTVLRYSGSSAALERIRSFSPLKEPLTIQVLMVGHALRPKIKFTYFMKKKTESFNAIPTFSEWVIEEWGECSKTCGSGWQRRVVQCRDINGHPASECAKEVKPASTRPCADLPCPHWQVGDWSPCSKTCGKGYKKRTLKCVSHDGGVLSNESCDPLKKPKHYIDFCTLTQCS
B4: Coagulation factor XIII A chain (enzyme, UniProt Q8BH61 2-732, looked up)
chain: SDTPASTFGGRRAVPPNNSNAAEVDLPTEELQGLVPRGVNLKDYLNVTAVHLFKERWDSNKIDHHTDKYDNNKLIVRRGQTFYIQIDFNRPYDPRKDLFRVEYVIGRYPQENKGTYIPVPVVKELQSGKWGAKVIMNEDRSVRLSVQSSPECIVGKFRMYVAVWTPYGILRTRRDPETDTYILFNPWCEEDAVYLDDEKEREEYVLNDIGVIFYGDFKDIKSRSWSYGQFEDGILDTCLYVMDKAEMDLSGRGNPIKVSRVGSAMVNAKDDEGVLVGSWDNVYAYGIPPSAWTGSVDILLEYRSSETPVRYGQCWVFAGVFNTFLRCLGIPARVITNYFSAHDNDANLQMDIFLEEDGNVSSKLTKDSVWNYHCWNEAWMTRPDLPVGFGGWQAVDSTPQENSDGMYRCGPASVQAVKHGHVCFQFDAPFVFAEVNSDLVYITAKQDGTHVVEAVDATHIGKLIVTKQIGGDGMQDITDTYKFQEGQEEERLALETALMYGAKKTLNTEGVVKSRSDVTMNFDVENAVLGKDFKVTITFQNNSSNLYTILAYLSGNITFYTGVSKKEFKKESFEETLDPFSSKKKEVLVRAGEYMSHLLEQGFLHFFVTARINESRDVLAKQKSIILTIPKITIKVRGAAMVGSDMVVTVEFTNPLKETLQNVWIHLDGPGVMRPKRKVFREIRPNTTVQWEEVCRPWVSGHRKLIASMTSDSLRHVYGELDLQIQRRPTM
B5: Glypican-1 (protein, UniProt Q9QZF2 24-529, looked up)
chain: DPASKSRSCSEVRQIYGAKGFSLSDVPQAEISGEHLRICPQGYTCCTSEMEENLANHSRMELESALHDSSRALQATLATQLHGIDDHFQRLLNDSERTLQEAFPGAFGDLYTQNTRAFRDLYAELRLYYRGANLHLEETLAEFWARLLERLFKQLHPQLLPDDYLDCLGKQAEALRPFGDAPRELRLRATRAFVAARSFVQGLGVASDVVRKVAQVPLAPECSRAIMKLVYCAHCRGVPGARPCPDYCRNVLKGCLANQADLDAEWRNLLDSMVLITDKFWGPSGAESVIGGVHVWLAEAINALQDNKDTLTAKVIQACGNPKVNPHGSGPEEKRRRGKLALQEKPSTGTLEKLVSEAKAQLRDIQDFWISLPGTLCSEKMAMSPASDDRCWNGISKGRYLPEVMGDGLANQINNPEVEVDITKPDMTIRQQIMQLKIMTNRLRGAYGGNDVDFQDASDDGSGSGSGGGCPDDTCGRRVSKKSSSSRTPLTHALPGLSEQEGQKTS
B6: Apolipoprotein C-III (protein, UniProt P33622 21-99, looked up)
chain: EEVEGSLLLGSVQGYMEQASKTVQDALSSVQESDIAVVARGWMDNHFRFLKGYWSKFTDKFTGFWDSNPEDQPTPAIES
B7: EGF-like repeat and discoidin I-like domain-containing protein 3 (protein, UniProt O35474 24-480, looked up)
chain: DICNPNPCENGGICLSGLADDSFSCECPEGFAGPNCSSVVEVASDEEKPTSAGPCIPNPCHNGGTCEISEAYRGDTFIGYVCKCPRGFNGIHCQHNINECEAEPCRNGGICTDLVANYSCECPGEFMGRNCQYKCSGPLGIEGGIISNQQITASSTHRALFGLQKWYPYYARLNKKGLINAWTAAENDRWPWIQINLQRKMRVTGVITQGAKRIGSPEYIKSYKIAYSNDGKTWAMYKVKGTNEEMVFRGNVDNNTPYANSFTPPIKAQYVRLYPQICRRHCTLRMELLGCELSGCSEPLGMKSGHIQDYQITASSVFRTLNMDMFTWEPRKARLDKQGKVNAWTSGHNDQSQWLQVDLLVPTKVTGIITQGAKDFGHVQFVGSYKLAYSNDGEHWMVHQDEKQRKDKVFQGNFDNDTHRKNVIDPPIYARFIRILPWSWYGRITLRSELLGCAEEE
B8: CCN family member 1 (protein, UniProt P18406 25-379, looked up)
chain: TCPAACHCPLEAPKCAPGVGLVRDGCGCCKVCAKQLNEDCSKTQPCDHTKGLECNFGASSTALKGICRAQSEGRPCEYNSRIYQNGESFQPNCKHQCTCIDGAVGCIPLCPQELSLPNLGCPNPRLVKVSGQCCEEWVCDEDSIKDSLDDQDDLLGLDASEVELTRNNELIAIGKGSSLKRLPVFGTEPRVLFNPLHAHGQKCIVQTTSWSQCSKSCGTGISTRVTNDNPECRLVKETRICEVRPCGQPVYSSLKKGKKCSKTKKSPEPVRFTYAGCSSVKKYRPKYCGSCVDGRCCTPLQTRTVKMRFRCEDGEMFSKNVMMIQSCKCNYNCPHPNEASFRLYSLFNDIHKFRD
B9: Annexin A6 (protein, UniProt P14824 2-673, looked up)
chain: AKIAQGAMYRGSVHDFPEFDANQDAEALYTAMKGFGSDKESILELITSRSNKQRQEICQNYKSLYGKDLIEDLKYELTGKFERLIVNLMRPLAYCDAKEIKDAISGVGTDEKCLIEILASRTNEQMHQLVAAYKDAYERDLESDIIGDTSGHFQKMLVVLLQGTRENDDVVSEDLVQQDVQDLYEAGELKWGTDEAQFIYILGNRSKQHLRLVFDEYLKTTGKPIEASIRGELSGDFEKLMLAVVKCIRSTPEYFAERLFKAMKGLGTRDNTLIRIMVSRSELDMLDIREIFRTKYEKSLYSMIKNDTSGEYKKALLKLCGGDDDAAGQFFPEAAQVAYQMWELSAVSRVELKGTVCAANDFNPDADAKALRKAMKGIGTDEATIIDIVTHRSNAQRQQIRQTFKSHFGRDLMADLKSEISGDLARLILGLMMPPAHYDAKQLKKAMEGAGTDEKTLIEILATRTNAEIRAINEAYKEDYHKSLEDALSSDTSGHFRRILISLATGNREEGGENRDQAQEDAQVAAEILEIADTPSGDKTSLETRFMTVLCTRSYPHLRRVFQEFIKKTNYDIEHVIKKEMSGDVKDAFVAIVQSVKNKPLFFADKLYKSMKGAGTDEKTLTRVMVSRSEIDLLNIRREFIEKYDKSLHQAIEGDTSGDFMKALLALCGGED
B10: Cochlin (protein, UniProt Q62507 27-552, looked up)
chain: EGAVPIPVTCFTRGLDIRKEKADVLCPGGCSLEEFSVFGNIVYASVSSICGAAVHRGVIGTSGGPVRVYSLPGRENYSSVDANGIQSQMLSRWSASFAVTKGKSSTQEATGRAVSTAHPPSGKRLKKTPEKKTGNKDCKADIAFLIDGSFNIGQRRFNLQKNFVGKVALMLGIGTEGPHVGLVQASEHPKIEFYLKNFTSAKDVLFAIKEVGFRGGNSNTGKALKHTAQKFFTADTGVRKGIPKVVVVFIDGWPSDDIEEAGIVAREFGVNVFIVSVAKPIPEELGMVQDVAFVDKAVCRNNGFFSYHMPNWFGTTKYVKPLVQKLCTHEQMMCSKTCYNSVNIAFLIDGSSSVGDSNFRLMLEFVSNIAKTFEISDIGAKIAAVQFTYDQRTEFSFTDYNTKENVLAVLANIRYMSGGTATGDAIAFTVRNVFGPIRDSPNKNFLVIVTDGQSYDDVRGPAAAAHDAGITIFSVGVAWAPLDDLRDMASKPKESHAFFTREFTGLEPIVSDVIRGICRDFLESQQ
B11: Annexin A4 (protein, UniProt P97429 1-319, looked up)
chain: MEAKGGTVKAASGFNATEDAQTLRKAMKGLGTDEDAIIGILAYRNTAQRQEIRSAYKSTIGRDLIEDLKSELSSNFEQVILGLMTPTVLYDVQELRRAMKGAGTDEGCLIEILASRTPEEIRRINQTYQQQYGRSLEEDICSDTSFMFQRVLVSLSAAGRDEGNYLDDALMKQDAQELYEAGEKRWGTDEVKFLSILCSRNRNHLLHVFDEYKRISQKDIEQSIKSETSGSFEDALLAIVKCMRSKPSYFAERLYKSMKGLGTDDNTLIRVMVSRAEIDMLDIRASFKRLYGKSLYSFIKGDTSGDYRKVLLVLCGGDD

Biological target: murine strep-tagged TNC (mTNC) (mouse) (UniProt Q80YX1)
Test: co-purification with recombinant mTNC, 1 M NaCl eluate, mass spectrometry

binding	Binder
binds	B1
binds	B2
binds	B3
binds	B4
binds	B5
binds	B6
binds	B7
binds	B8
binds	B9
binds	B10
binds	B11
